Assay results: patent publication CN113336848A
These are yes or no findings as the source states them, for the method shown. Some results given as binding are weak or reduced against the parent protein; the word gives no strength.

The chains behind the UniProt entries cited, without tags or fusion partners. Residues count along the entry.
UniProt Q15116, residues 25-288: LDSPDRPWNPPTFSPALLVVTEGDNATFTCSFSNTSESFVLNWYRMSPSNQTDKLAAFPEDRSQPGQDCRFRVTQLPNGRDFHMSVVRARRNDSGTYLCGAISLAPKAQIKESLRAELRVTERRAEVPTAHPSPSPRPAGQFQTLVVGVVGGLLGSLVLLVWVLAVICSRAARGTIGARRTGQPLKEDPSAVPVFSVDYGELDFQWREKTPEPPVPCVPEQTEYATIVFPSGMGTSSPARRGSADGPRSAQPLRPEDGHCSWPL

Biological target: PD-1 (CHO-PD-1, 表达PD-1的CHO细胞) (human) (UniProt Q15116)
Assay: FACS of 293T transfection supernatant on CHO-PD-1 cells, goat anti-mouse IgG Fc-FITC

B1: PD1-05-4C3-1D12-1C8重组抗体 (antibody, V domains shown)
VH: EVLLQQSGPELVKPGASVKISCKASGYTFSDNNIDWVRQSHGKSLEWIGDINPSNGGVIYKQNFEGKAILTVDKSSSTAYMELRSLTSEDTSVYYCARTRSDGMDYWGQGTSVTVSS
VL: DIQMTQSPASQSASLGESVTITCLASQTIGTWLAWYQQKPGKSPQLLIYDATSLTDGVPSRFSGSGSGTKFSFKISSLQAEDFVSYYCQQFYSTPFTFGSGTKLEIK
  binding: binds
